In the supplement of paper PMC2577665:
± gives the standard deviation of the averaged measurements. This is a noisy data set.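 Each test well overexpressed one poorly characterized human cDNA in ERalpha-negative HeLa cells together with transfected ERalpha and a reporter carrying two estrogen response elements. A gene counted as a repressor hit if it cut the signal to the level of the BRCA1 positive control (about 0.6 of empty vector) or lower.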

What follows are sequences tested on ERE-luciferase reporter with exogenous ERalpha in HeLa cells (assay: relative ERE luciferase activity (Firefly/Renilla) upon cDNA overexpression, relative to empty vector (fold of empty vector); higher = stronger ERalpha transactivation (less repression)). Conditions: 17beta-estradiol: 10 nM; 12 h.

Sequence | relative ERE luciferase activity
MSFVECPYHSPAERLVAEADEGGPSAITGMGLCFRCLLFSFSGRSGVEGGRVDLNVFGSLGLQPWIGSSRCWGGPCSSALRCGWFSSWPPPSKSAIPIGGGSRGAGRVSRWPPPHWLEAWRVSPLPLSPLSPATFGRGFIAVAVIPGLWARGRGCSSDRLPRPAGPARRQFQAASLLTRGWGRAWPWKQILKELDECYERFSRETDGAQKRRMLHCVQRALIRSQELGDEKIQIVSQMVELVENRTRQVDSHVELFEAQQELGDTAGNSGKAGADRPKGEAAAQADKPNSKRSRRQRNNENRENASSNHDHDDGASGTPKEKKAKTSKKKKRSKAKAEREASPADLPIDPNEPTYCLCNQVSYGEMIGCDNDECPIEWFHFSCVGLNHKPKGKWYCPKCRGENEKTMDKALEKSKKERAYNR [ING1] | 3
MSLCSACTSPASHQLLLNCQGQTVAKSHSSADAGVSLVSGRWCAWWPEHCSESMFPSQHPVLSSNLADSSGQGRSPAGAHPALCPFHKSPWFPHFPQILPREWSWCGPERPAGCSLGLKAEAALVGKK [C6orf208] | 1.05
MSLCSPTHSAEMSLFLQGPEEMLPLSSEGSEMGSEKEQSPEPHLPEEGEGGKPWRVDDSEGSWIPPGEKEHGQESLSDELQETHPKKPWQKVTVRARELGDPIAHPRHEADEKPFICAQCGKTFNNTSNLRTHQRIHTGEKPYKCSECGKSFSRSSNRIRHERIHLEEKHYKCPKCQESFRRRSDLTTHQQDHLGKRPYRCDICGKSFSQSATLAVHHRTHLEPAPYICCECGKSFSNSSSFGVHHRTHTGERPYECTECGRTFSDISNFGAHQRTHRGEKPYRCTVCGKHFSRSSNLIRHQKTHLGEQAGKDSS [ZNF691] | 1.08
MSLLLYYALPALGSYAMLSIFFLRRPHLLHTPRAPTFRIRLGAHRGGSGELLENTMEAMENSMAQRSDLLELDCQLTRDRVVVVSHDENLCRQSGLNRDVGSLDFEDLPLYKEKLEVYFSPGHFAHGSDRRMVRLEDLFQRFPRTPMSVEIKGKNEELIREIAGLVRRYDRNEITIWASEKSSVMKKCKAANPEMPLSFTISRGFWVLLSYYLGLLPFIPIPEKFFFCFLPNIINRTYFPFSCSCLNQLLAVVSKWLIMRKSLIRHLEERGVQVVFWCLNEESDFEAAFSVGATGVITDYPTALRHYLDNHGPAARTS [GDPD3] | 1.04
MSLNPPIFLKRSEENSSKFVETKQSQTTSIASEDPLQNLCLASQEVLQKAQQSGRSKCLKCGGSRMFYCYTCYVPVENVPIEQIPLVKLPLKIDIIKHPNETDGKSTAIHAKLLAPEFVNIYTYPCIPEYEEKDHEVALIFPGPQSISIKDISFHLQKRIQNNVRGKNDDPDKPSFKRKRTEEQEFCDLNDSKCKGTTLKKIIFIDSTWNQTNKIFTDERLQGLLQVELKTRKTCFWRHQKGKPDTFLSTIEAIYYFLVDYHTDILKEKYRGQYDNLLFFYSFMYQLIKNAKCSGDKETGKLTH [DTWD1] | 1.21
MSLSDWHLAVKLADQPLTPKSILRLPETELGEYSLGGYSISFLKQLIAGKLQESVPDPELIDLIYCGRKLKDDQTLDFYGIQPGSTVHVLRKSWPEPDQKPEPVDKVAAMREFRVLHTALHSSSSYREAVFKMLSNKESLDQIIVATPGLSSDPIALGVLQDKDLFSVFADPNMLDTLVPAHPALVNAIVLVLHSVAGSAPMPGTDSSSRSMPSSSYRDMPGGFLFEGLSDDEDDFHPNTRSTPSSSTPSSRPASLGYSGAAGPRPITQSELATALALASTPESSSHTPTPGTQGHSSGTSPMSSGVQSGTPITNDLFSQALQHALQASGQPSLQSQWQPQLQQLRDMGIQDDELSLRALQATGGDIQAALELIFAGGAP [UBL7] | 1.1 ± 0.061
MSNYVNDMWPGSPQEKDSPSTSRSGGSSRLSSRSRSRSFSRSSRSHSRVSSRFSSRSRRSKSRSRSRRRHQRKYRRYSRSYSRSRSRSRSRRYRERRYGFTRRYYRSPSRYRSRSRSRSRSRGRSYCGRAYAIARGQRYYGFGRTVYPEEHSRWRDRSRTRSRSRTPFRLSEKDRMELLEIAKTNAAKALGTTNIDLPASLRTVPSAKETSRGIGVSSNGAKPELSEKVTEDGTRNPNEKPTQQRSIAFSSNNSVAKPIQKSAKAATEEASSRSPKIDQKKSPYGLWIPI [C1orf63] | 1.1
